In publication PMC7338535 one finds binding data, which are given here for one molecule.

Assay [1] addresses DiB2-split N-terminal fragment, His-tagged (UniProt P0A901). The experiment in a line: pull-down; His-tagged N-fragment and untagged C-fragment co-expressed in E. coli; immobilized metal ion affinity purification (TALON resin) from the cell-free extract.
Assay [2] has the same target. The experiment in a line: crystal structure; DiB2-split, crystals grown at 21 °C in 1.6 M ammonium sulphate, 0.1 M MES, pH 4.5; three split molecules in the asymmetric unit; both purified.

Results are given in words; binding and its absence hold for the method and conditions named. Binding calls can cover weak binding; strength is not graded here. Sequences can lack the tags named with a protein. For some assays here: Binding seen in cells or lysates may run through a third protein.

B1: DiB2-split C-terminal fragment, untagged (domain or fragment)
chain: GPFYGGYNVIALDREYRHALVCGPDRDYLWILSRTPTISDEVKQEMLAVATREGFDVSKFIWVQQPGS
As for B1, the binding entry in assay [1] and in assay [2] was “binds” throughout.
